Measurements published in the supplement of paper PMC10849652.
Some of the results follow.

Protein sequences, listed by entry. Tags and fused reporters are not part of them. Lines headed by an entry give the natural chain unless they say otherwise; changes in a name come on top.
UniProt A4D1E9: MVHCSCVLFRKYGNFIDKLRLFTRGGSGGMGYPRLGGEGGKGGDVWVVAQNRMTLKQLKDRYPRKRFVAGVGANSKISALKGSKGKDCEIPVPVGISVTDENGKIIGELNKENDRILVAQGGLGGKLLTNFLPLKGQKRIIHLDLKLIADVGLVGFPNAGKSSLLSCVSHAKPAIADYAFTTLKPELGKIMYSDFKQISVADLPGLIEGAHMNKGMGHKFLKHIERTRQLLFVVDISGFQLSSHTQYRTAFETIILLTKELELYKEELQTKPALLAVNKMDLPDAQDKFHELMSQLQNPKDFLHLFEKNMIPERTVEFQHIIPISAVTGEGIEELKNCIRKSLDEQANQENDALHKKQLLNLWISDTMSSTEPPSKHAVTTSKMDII
UniProt P16403, whole entry, looked up: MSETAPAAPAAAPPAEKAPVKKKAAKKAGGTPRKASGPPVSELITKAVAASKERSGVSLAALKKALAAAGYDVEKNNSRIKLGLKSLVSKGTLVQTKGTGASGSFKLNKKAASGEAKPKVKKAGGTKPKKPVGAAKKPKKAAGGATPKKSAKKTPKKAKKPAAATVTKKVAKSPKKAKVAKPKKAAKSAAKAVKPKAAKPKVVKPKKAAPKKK
UniProt Q13322: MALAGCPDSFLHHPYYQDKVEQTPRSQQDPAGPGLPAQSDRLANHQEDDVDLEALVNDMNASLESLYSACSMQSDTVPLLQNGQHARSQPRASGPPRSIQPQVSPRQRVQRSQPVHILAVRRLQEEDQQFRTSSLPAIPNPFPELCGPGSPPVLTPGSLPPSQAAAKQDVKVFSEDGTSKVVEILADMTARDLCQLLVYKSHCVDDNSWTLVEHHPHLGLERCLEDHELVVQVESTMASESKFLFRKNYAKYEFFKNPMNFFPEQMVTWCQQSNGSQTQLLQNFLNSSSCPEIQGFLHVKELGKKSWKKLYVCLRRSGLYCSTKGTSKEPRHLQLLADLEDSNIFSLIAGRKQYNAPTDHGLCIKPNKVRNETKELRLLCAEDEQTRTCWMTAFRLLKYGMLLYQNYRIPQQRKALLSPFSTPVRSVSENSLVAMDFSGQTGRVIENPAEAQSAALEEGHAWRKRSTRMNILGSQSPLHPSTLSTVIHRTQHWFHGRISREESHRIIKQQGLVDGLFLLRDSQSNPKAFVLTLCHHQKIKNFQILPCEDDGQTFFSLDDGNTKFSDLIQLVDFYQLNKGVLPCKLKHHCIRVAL
UniProt Q16774: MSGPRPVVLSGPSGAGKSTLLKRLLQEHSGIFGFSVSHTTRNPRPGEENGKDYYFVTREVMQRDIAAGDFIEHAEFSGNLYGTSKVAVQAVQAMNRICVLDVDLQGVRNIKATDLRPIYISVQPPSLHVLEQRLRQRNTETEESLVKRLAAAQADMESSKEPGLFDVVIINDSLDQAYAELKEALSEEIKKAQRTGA
UniProt Q13888: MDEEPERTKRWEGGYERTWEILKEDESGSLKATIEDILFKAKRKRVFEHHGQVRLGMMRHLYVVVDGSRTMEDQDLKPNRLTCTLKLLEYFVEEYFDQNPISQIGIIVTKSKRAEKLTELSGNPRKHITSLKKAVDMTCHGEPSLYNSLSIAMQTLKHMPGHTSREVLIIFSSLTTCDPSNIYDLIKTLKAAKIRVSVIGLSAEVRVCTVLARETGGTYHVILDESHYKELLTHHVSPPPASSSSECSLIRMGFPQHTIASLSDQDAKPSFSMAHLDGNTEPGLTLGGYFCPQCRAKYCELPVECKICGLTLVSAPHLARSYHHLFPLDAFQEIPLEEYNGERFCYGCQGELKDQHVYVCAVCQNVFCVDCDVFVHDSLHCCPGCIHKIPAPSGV
UniProt Q7Z4Q2: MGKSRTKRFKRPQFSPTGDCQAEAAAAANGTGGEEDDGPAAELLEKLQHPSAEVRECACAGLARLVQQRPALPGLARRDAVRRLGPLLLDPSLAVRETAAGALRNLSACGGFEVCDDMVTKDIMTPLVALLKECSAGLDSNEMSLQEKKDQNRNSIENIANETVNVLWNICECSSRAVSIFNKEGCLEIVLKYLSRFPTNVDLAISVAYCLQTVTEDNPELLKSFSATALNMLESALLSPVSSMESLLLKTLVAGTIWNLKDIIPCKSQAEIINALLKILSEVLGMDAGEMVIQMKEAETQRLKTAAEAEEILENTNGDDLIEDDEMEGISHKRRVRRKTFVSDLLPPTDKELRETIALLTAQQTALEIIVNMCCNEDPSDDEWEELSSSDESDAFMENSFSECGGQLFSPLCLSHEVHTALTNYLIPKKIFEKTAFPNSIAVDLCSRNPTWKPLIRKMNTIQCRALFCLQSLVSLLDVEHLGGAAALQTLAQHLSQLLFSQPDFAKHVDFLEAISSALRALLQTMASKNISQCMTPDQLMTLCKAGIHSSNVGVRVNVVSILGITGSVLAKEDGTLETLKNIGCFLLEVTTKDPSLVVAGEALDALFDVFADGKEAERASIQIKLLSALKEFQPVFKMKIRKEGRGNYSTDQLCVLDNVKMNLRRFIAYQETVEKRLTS
UniProt Q9BX10: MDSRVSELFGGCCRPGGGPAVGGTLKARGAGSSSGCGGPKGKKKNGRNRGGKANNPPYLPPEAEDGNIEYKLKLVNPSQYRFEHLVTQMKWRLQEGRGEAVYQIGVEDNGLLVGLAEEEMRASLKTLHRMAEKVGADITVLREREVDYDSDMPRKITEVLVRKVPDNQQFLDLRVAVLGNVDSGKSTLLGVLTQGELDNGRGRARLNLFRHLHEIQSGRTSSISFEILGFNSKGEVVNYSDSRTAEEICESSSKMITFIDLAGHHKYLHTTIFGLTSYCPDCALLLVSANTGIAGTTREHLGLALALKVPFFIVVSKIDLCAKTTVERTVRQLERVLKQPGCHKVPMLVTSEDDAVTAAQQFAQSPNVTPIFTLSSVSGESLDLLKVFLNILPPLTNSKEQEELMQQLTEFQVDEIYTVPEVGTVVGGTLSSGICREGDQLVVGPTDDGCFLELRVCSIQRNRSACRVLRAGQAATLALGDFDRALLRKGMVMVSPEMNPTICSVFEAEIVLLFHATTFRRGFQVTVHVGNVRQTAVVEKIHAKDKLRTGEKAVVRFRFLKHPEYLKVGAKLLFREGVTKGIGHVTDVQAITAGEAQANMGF
UniProt P09105: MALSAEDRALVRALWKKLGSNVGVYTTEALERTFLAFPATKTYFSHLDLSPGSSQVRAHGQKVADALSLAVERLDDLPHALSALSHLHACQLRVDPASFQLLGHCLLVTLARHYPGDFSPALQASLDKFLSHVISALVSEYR
UniProt P09211: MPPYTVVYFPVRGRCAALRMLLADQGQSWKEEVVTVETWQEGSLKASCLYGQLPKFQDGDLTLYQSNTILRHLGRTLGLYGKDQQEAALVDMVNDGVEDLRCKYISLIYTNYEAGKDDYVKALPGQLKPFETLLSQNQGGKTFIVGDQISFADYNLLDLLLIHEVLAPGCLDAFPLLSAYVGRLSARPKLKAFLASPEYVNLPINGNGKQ
UniProt P21266: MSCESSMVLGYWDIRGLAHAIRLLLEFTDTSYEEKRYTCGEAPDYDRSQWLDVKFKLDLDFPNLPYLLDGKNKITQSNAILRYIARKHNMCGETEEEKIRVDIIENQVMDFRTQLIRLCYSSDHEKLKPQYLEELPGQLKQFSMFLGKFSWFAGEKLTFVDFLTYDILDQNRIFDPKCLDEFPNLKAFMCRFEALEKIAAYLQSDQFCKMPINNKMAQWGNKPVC
UniProt P53701: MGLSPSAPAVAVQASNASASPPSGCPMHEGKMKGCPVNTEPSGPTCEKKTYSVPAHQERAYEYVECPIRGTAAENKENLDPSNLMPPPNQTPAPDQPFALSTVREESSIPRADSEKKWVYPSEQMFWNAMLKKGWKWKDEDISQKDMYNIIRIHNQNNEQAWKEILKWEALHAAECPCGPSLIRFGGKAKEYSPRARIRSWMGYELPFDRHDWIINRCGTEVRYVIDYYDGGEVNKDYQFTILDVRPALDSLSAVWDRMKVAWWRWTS
UniProt Q92522: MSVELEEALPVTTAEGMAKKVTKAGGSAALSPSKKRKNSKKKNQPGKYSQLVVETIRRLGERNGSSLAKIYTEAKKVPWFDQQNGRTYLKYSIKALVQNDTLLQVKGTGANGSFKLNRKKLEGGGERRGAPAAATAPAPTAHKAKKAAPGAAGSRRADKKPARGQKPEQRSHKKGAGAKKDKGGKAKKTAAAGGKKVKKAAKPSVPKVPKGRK
UniProt P55084: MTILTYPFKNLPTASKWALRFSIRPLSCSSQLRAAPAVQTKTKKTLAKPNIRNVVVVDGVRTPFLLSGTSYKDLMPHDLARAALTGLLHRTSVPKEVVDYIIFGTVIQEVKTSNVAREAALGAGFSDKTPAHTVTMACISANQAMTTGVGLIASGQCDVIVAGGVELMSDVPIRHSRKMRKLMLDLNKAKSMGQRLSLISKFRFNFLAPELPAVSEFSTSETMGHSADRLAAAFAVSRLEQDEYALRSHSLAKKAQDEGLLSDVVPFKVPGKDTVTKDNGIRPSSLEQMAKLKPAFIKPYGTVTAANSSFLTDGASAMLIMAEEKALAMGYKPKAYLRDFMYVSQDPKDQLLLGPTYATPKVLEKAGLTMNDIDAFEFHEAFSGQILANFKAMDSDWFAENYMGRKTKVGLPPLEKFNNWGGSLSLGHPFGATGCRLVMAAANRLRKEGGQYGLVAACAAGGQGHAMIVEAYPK
UniProt Q8N442: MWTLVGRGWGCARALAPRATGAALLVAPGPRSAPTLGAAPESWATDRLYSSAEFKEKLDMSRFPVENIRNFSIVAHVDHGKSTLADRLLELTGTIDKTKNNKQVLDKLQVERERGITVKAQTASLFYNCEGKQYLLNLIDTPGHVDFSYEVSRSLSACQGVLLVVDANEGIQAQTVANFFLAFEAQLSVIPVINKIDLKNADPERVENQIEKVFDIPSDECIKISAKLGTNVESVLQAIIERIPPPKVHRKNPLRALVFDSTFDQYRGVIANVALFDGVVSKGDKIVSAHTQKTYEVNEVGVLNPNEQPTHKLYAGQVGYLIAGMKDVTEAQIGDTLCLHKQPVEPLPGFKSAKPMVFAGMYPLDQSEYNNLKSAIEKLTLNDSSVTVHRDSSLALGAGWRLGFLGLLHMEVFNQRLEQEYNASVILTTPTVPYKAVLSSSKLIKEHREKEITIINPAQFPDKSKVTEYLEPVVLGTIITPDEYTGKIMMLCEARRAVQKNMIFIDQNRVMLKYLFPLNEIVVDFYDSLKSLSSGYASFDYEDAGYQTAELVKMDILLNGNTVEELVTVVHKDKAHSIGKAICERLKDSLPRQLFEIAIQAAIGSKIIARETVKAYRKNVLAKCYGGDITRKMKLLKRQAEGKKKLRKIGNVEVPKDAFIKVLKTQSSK
UniProt Q92759: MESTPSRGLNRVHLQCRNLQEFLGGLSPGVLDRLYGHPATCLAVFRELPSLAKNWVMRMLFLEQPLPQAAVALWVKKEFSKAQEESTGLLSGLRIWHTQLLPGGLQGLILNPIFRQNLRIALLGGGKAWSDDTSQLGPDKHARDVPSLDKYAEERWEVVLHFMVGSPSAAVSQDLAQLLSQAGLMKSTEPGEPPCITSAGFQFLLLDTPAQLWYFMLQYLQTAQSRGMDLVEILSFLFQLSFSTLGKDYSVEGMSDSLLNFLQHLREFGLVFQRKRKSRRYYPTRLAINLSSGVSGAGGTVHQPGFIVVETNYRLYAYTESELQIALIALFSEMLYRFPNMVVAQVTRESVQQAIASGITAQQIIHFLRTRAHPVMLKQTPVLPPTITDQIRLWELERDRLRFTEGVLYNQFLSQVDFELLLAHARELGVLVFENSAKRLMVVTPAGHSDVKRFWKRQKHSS

Columns and labels:
Test in all cases: log2 fold change, soluble protein after heating vs DMSO (PISA); higher = thermal stabilisation; K562 lysate, 10 uM; active = over 0.2 and 3.5 SD of the protein, either way, in both replicates (recomputed)
lapatinib = compound: CS(=O)(=O)CCNCc1ccc(-c2ccc3ncnc(Nc4ccc(OCc5cccc(F)c5)c(Cl)c4)c3c2)o1 [lapatinib]
Method in brief: (§1)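 Soluble protein was defined as the supernatant remaining after 21,000xg for 90 min, following pooling of heated aliquots and adjustment to 0.5% NP-40 at 4°C. Before that, crude K562 extract at 1 mg/mL protein in PBS pH 7.4 with 1 mM MgCl2 was treated with 10 μM compound for 30 min and heated for 3 min across 48°C-58°C. Quantification used TMTpro 16plex LC-MS/MS with channel sums equalised, and values are log-two fold changes in thermal stability relative to solvent controls from duplicates.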

pictilisib = compound: CS(=O)(=O)N1CCN(Cc2cc3nc(-c4cccc5[nH]ncc45)nc(N4CCOCC4)c3s2)CC1 [pictilisib]
Method in brief: as §1

crizotinib = compound: C[C@@H](Oc1cc(-c2cnn(C3CCNCC3)c2)cnc1N)c1c(Cl)ccc(F)c1Cl [crizotinib]
Method in brief: as §1

[1] = compound: C[C@H](C1=CC=C(C=C1)C(=O)NC2=C3C=CNC3=NC=C2)N
Method in brief: as §1

duvelisib = compound: C[C@H](Nc1ncnc2nc[nH]c12)c1cc2cccc(Cl)c2c(=O)n1-c1ccccc1 [duvelisib]
Method in brief: as §1

gandotinib = compound: Cc1cc(Nc2cc(CN3CCOCC3)c3nc(C)c(Cc4ccc(Cl)cc4F)n3n2)n[nH]1 [gandotinib]
Method in brief: as §1

tozasertib = compound: Cc1cc(Nc2cc(N3CCN(C)CC3)nc(Sc3ccc(NC(=O)C4CC4)cc3)n2)n[nH]1 [tozasertib]
Method in brief: as §1

doramapimod = compound: Cc1ccc(-n2nc(C(C)(C)C)cc2NC(=O)Nc2ccc(OCCN3CCOCC3)c3ccccc23)cc1 [doramapimod]
Method in brief: as §1

bafetinib = compound: Cc1ccc(NC(=O)c2ccc(CN3CC[C@H](N(C)C)C3)c(C(F)(F)F)c2)cc1Nc1nccc(-c2cncnc2)n1 [bafetinib]
Method in brief: as §1

[2] = compound: Cc1cccc(CC(=O)N2CCc3c2ccc(-c2cn(C)c4ncnc(N)c24)c3F)n1
Method in brief: as §1

nilotinib = compound: Cc1cn(-c2cc(NC(=O)c3ccc(C)c(Nc4nccc(-c5cccnc5)n4)c3)cc(C(F)(F)F)c2)cn1 [nilotinib]
Method in brief: as §1

[3] = compound: Cc1nc(Nc2n[nH]c3c2CN(C(=O)N[C@H](CN(C)C)c2ccccc2)C3(C)C)c2sccc2n1
Method in brief: as §1

dasatinib = compound: Cc1nc(Nc2ncc(C(=O)Nc3c(C)cccc3Cl)s2)cc(N2CCN(CCO)CC2)n1 [dasatinib]
Method in brief: as §1

[4] = compound: Cc1ncc(-c2ccnc(Nc3ccc(S(C)(=O)=O)cc3)n2)n1C(C)C
Method in brief: as §1

[5] = compound: Cn1cc(-c2ccc3c(c2)CCN3C(=O)Cc2cccc(C(F)(F)F)c2)c2c(N)ncnc21
Method in brief: as §1

quisinostat = compound: Cn1cc(CNCC2CCN(c3ncc(C(=O)NO)cn3)CC2)c2ccccc21 [quisinostat]
Method in brief: as §1

tipifarnib = compound: Cn1cncc1[C@@](N)(c1ccc(Cl)cc1)c1ccc2c(c1)c(-c1cccc(Cl)c1)cc(=O)n2C [tipifarnib]
Method in brief: as §1

[6] = compound: NC(=O)Nc1cc(-c2cccc(F)c2)sc1C(=O)N[C@H]1CCCNC1
Method in brief: as §1

[7] = compound: NC(=O)c1cnc(N[C@@H]2CCCC[C@@H]2N)nc1Nc1cccc(-n2nccn2)c1
Method in brief: as §1

[8] = compound: NC1(c2ccc(-c3nc4ccn5c(=O)[nH]nc5c4cc3-c3ccccc3)cc2)CCC1
Method in brief: as §1

Measured: log2 fold change

GTPBP10 (UniProt A4D1E9)
inactive: lapatinib -0.007 | pictilisib -0.048 | crizotinib -0.039 | [1] -0.004 | duvelisib -0.019 | gandotinib -0.009 | tozasertib -0.103 | doramapimod -0.114 | bafetinib -0.151 | [2] -0.019 | nilotinib -0.011 | [3] -0.031 | dasatinib -0.059 | [4] -0.032 | [5] 0.003 | quisinostat -0.041 | tipifarnib 0.153 | [6] -0.041 | [7] -0.034 | [8] -0.023

H1-2 (UniProt P16403)
inactive: lapatinib -0.028 | pictilisib -0.02 | crizotinib 0.006 | [1] -0.002 | duvelisib 0.039 | gandotinib 0.005 | tozasertib -0.002 | doramapimod -0.081 | bafetinib -0.055 | [2] -0.005 | nilotinib -0.006 | [3] 0.02 | dasatinib -0.027 | [4] -0.002 | [5] -0.119 | quisinostat -0.014 | tipifarnib -0.019 | [6] 0.001 | [7] 0.001 | [8] 0.024

GRB10 (UniProt Q13322)
inactive: lapatinib -0.029 | pictilisib -0.034 | crizotinib -0.028 | [1] -0.125 | duvelisib 0.029 | gandotinib 0.016 | tozasertib -0.06 | doramapimod 0.021 | bafetinib -0.049 | [2] 0.099 | nilotinib 0.053 | [3] -0.028 | dasatinib -0.003 | [4] 0.026 | [5] 0.04 | quisinostat -0.065 | tipifarnib -0.058 | [6] 0.008 | [7] -0.056 | [8] 0.008

GUK1 isoform 2 (UniProt Q16774)
inactive: lapatinib 0.032 | pictilisib 0.002 | crizotinib -0.098 | [1] -0.161 | duvelisib -0.026 | gandotinib 0.061 | tozasertib -0.037 | doramapimod 0.022 | bafetinib -0.126 | [2] 0.132 | nilotinib -0.058 | [3] 0.038 | dasatinib -0.095 | [4] -0.006 | [5] -0.036 | quisinostat -0.117 | tipifarnib -0.025 | [6] 0.013 | [7] -0.019 | [8] -0.036

GTF2H2 (UniProt Q13888)
inactive: lapatinib 0.008 | pictilisib -0.061 | crizotinib -0.02 | [1] -0.031 | duvelisib 0.009 | gandotinib 0.008 | tozasertib 0.022 | doramapimod -0.053 | bafetinib -0.06 | [2] 0.077 | nilotinib -0.009 | [3] 0.019 | dasatinib -0.058 | [4] 0.064 | [5] 0.038 | quisinostat 0.01 | tipifarnib 0.015 | [6] 0.024 | [7] 0.005 | [8] 0

HEATR3 (UniProt Q7Z4Q2)
inactive: lapatinib -0.003 | pictilisib 0 | crizotinib -0.074 | [1] -0.006 | duvelisib -0.005 | gandotinib -0.078 | tozasertib -0.021 | doramapimod 0.027 | bafetinib -0.064 | [2] 0.031 | nilotinib 0.023 | [3] -0.021 | dasatinib -0.042 | [4] -0.031 | [5] 0.062 | quisinostat -0.078 | tipifarnib 0.019 | [6] 0.033 | [7] -0.015 | [8] 0.001

GTPBP2 (UniProt Q9BX10)
inactive: lapatinib 0.064 | pictilisib -0.056 | crizotinib -0.052 | [1] 0.021 | duvelisib 0.043 | gandotinib -0.098 | tozasertib -0.048 | doramapimod 0.027 | bafetinib -0.038 | [2] 0.009 | nilotinib 0.016 | [3] -0.009 | dasatinib -0.023 | [4] -0.014 | [5] 0.005 | quisinostat -0.136 | tipifarnib -0.079 | [6] 0.042 | [7] 0.04 | [8] 0.046

2 entries picked at random from the list so far, as already listed:
HEATR3 (UniProt Q7Z4Q2)
inactive: lapatinib -0.003 | pictilisib 0 | crizotinib -0.074 | [1] -0.006 | duvelisib -0.005 | gandotinib -0.078 | tozasertib -0.021 | doramapimod 0.027 | bafetinib -0.064 | [2] 0.031 | nilotinib 0.023 | [3] -0.021 | dasatinib -0.042 | [4] -0.031 | [5] 0.062 | quisinostat -0.078 | tipifarnib 0.019 | [6] 0.033 | [7] -0.015 | [8] 0.001

GTF2H2 (UniProt Q13888)
inactive: lapatinib 0.008 | pictilisib -0.061 | crizotinib -0.02 | [1] -0.031 | duvelisib 0.009 | gandotinib 0.008 | tozasertib 0.022 | doramapimod -0.053 | bafetinib -0.06 | [2] 0.077 | nilotinib -0.009 | [3] 0.019 | dasatinib -0.058 | [4] 0.064 | [5] 0.038 | quisinostat 0.01 | tipifarnib 0.015 | [6] 0.024 | [7] 0.005 | [8] 0

The list continues:

HBQ1 (UniProt P09105)
inactive: lapatinib 0.09 | pictilisib -0.03 | crizotinib -0.033 | [1] 0.013 | duvelisib 0.008 | gandotinib -0.082 | tozasertib 0.058 | doramapimod -0.031 | bafetinib -0.013 | [2] 0.005 | nilotinib 0.046 | [3] 0.039 | dasatinib 0.044 | [4] 0.1 | [5] 0.011 | quisinostat 0.026 | tipifarnib -0.024 | [6] -0.029 | [7] -0.028 | [8] 0.025

HDLBP, A0A024R4E5
inactive: lapatinib 0.005 | pictilisib -0.017 | crizotinib -0.028 | [1] 0.002 | duvelisib -0.003 | gandotinib -0.03 | tozasertib 0.006 | doramapimod 0.018 | bafetinib -0.049 | [2] 0.013 | nilotinib -0.011 | [3] 0.006 | dasatinib -0.038 | [4] 0.014 | [5] 0.015 | quisinostat -0.076 | tipifarnib 0.001 | [6] 0.018 | [7] -0.002 | [8] -0.022

GSTP1 (UniProt P09211)
inactive: lapatinib -0.015 | pictilisib 0.021 | crizotinib -0.018 | [1] -0.025 | duvelisib 0.001 | gandotinib -0.035 | tozasertib -0.007 | doramapimod -0.006 | bafetinib 0.01 | [2] 0.003 | nilotinib 0.006 | [3] -0.001 | dasatinib -0.035 | [4] -0.003 | [5] -0.01 | quisinostat -0.016 | tipifarnib 0.029 | [6] -0.029 | [7] -0.004 | [8] 0.01

GSTM3 (UniProt P21266)
inactive: lapatinib -0.045 | pictilisib -0.004 | crizotinib 0.078 | [1] 0.007 | duvelisib 0.027 | gandotinib -0.143 | tozasertib -0.035 | doramapimod -0.034 | bafetinib -0.075 | [2] -0.036 | nilotinib -0.041 | [3] -0.09 | dasatinib -0.12 | [4] 0.05 | [5] 0.155 | quisinostat -0.111 | tipifarnib 0.077 | [6] 0.075 | [7] 0.081 | [8] 0.014

HCCS (UniProt P53701)
inactive: lapatinib 0.005 | pictilisib 0.034 | crizotinib 0.009 | [1] -0.054 | duvelisib -0.019 | gandotinib 0.021 | tozasertib -0.034 | doramapimod -0.002 | bafetinib -0.039 | [2] 0.052 | nilotinib 0.021 | [3] 0.005 | dasatinib -0.017 | [4] -0.005 | [5] -0.015 | quisinostat 0.004 | tipifarnib -0.003 | [6] 0.012 | [7] -0.009 | [8] 0.013

H1FX (UniProt Q92522)
inactive: lapatinib -0.008 | pictilisib 0.001 | crizotinib -0.005 | [1] 0.004 | duvelisib -0.025 | gandotinib -0.026 | tozasertib 0.007 | doramapimod -0.003 | bafetinib -0.047 | [2] 0.006 | nilotinib 0.03 | [3] -0.02 | dasatinib 0.017 | [4] 0.029 | [5] -0.001 | quisinostat -0.017 | tipifarnib 0.043 | [6] 0.044 | [7] -0.004 | [8] -0.011

HADHB (UniProt P55084)
inactive: lapatinib 0.1 | pictilisib 0.067 | crizotinib 0.073 | [1] -0.041 | duvelisib 0.037 | gandotinib 0.138 | tozasertib 0.016 | doramapimod 0.218 | bafetinib 0.014 | [2] -0.093 | nilotinib 0.052 | [3] -0.028 | dasatinib -0.026 | [4] 0.022 | [5] 0.066 | quisinostat -0.064 | tipifarnib 0.028 | [6] -0.122 | [7] -0.076 | [8] 0.073

GUF1 (UniProt Q8N442)
inactive: lapatinib 0.22 | pictilisib -0.139 | crizotinib 0.018 | [1] -0.067 | duvelisib 0.049 | gandotinib -0.055 | tozasertib 0.04 | doramapimod 0.011 | bafetinib -0.061 | [2] -0.044 | nilotinib 0.06 | [3] 0.088 | dasatinib 0.018 | [4] -0.012 | [5] 0.063 | quisinostat -0.061 | tipifarnib -0.123 | [6] 0.08 | [7] 0.065 | [8] -0.053

GTF2H4 (UniProt Q92759)
inactive: lapatinib -0.026 | pictilisib 0.027 | crizotinib -0.025 | [1] 0.061 | duvelisib -0.01 | gandotinib -0.14 | tozasertib 0.031 | doramapimod 0 | bafetinib -0.039 | [2] 0.038 | nilotinib 0.006 | [3] 0.021 | dasatinib 0.003 | [4] 0.019 | [5] -0.011 | quisinostat -0.029 | tipifarnib -0.008 | [6] 0.07 | [7] 0.04 | [8] -0.08
